Assay results taken from PMC10526654.

Amino acid sequences for entries named in this document (tags omitted). Residues count along the entry.
UniProt P19474: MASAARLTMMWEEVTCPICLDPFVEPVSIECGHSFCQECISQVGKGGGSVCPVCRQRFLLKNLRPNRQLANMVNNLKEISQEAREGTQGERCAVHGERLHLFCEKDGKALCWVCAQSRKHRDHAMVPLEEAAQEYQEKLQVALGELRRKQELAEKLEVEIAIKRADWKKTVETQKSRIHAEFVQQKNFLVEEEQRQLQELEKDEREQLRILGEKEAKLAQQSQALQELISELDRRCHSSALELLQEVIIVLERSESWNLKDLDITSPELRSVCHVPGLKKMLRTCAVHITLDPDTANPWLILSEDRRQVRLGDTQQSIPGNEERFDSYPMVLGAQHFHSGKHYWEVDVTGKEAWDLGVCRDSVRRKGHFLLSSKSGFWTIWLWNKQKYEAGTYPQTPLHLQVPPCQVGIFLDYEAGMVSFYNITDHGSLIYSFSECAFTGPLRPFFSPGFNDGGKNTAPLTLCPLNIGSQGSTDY
UniProt P11047, residues 34-1609: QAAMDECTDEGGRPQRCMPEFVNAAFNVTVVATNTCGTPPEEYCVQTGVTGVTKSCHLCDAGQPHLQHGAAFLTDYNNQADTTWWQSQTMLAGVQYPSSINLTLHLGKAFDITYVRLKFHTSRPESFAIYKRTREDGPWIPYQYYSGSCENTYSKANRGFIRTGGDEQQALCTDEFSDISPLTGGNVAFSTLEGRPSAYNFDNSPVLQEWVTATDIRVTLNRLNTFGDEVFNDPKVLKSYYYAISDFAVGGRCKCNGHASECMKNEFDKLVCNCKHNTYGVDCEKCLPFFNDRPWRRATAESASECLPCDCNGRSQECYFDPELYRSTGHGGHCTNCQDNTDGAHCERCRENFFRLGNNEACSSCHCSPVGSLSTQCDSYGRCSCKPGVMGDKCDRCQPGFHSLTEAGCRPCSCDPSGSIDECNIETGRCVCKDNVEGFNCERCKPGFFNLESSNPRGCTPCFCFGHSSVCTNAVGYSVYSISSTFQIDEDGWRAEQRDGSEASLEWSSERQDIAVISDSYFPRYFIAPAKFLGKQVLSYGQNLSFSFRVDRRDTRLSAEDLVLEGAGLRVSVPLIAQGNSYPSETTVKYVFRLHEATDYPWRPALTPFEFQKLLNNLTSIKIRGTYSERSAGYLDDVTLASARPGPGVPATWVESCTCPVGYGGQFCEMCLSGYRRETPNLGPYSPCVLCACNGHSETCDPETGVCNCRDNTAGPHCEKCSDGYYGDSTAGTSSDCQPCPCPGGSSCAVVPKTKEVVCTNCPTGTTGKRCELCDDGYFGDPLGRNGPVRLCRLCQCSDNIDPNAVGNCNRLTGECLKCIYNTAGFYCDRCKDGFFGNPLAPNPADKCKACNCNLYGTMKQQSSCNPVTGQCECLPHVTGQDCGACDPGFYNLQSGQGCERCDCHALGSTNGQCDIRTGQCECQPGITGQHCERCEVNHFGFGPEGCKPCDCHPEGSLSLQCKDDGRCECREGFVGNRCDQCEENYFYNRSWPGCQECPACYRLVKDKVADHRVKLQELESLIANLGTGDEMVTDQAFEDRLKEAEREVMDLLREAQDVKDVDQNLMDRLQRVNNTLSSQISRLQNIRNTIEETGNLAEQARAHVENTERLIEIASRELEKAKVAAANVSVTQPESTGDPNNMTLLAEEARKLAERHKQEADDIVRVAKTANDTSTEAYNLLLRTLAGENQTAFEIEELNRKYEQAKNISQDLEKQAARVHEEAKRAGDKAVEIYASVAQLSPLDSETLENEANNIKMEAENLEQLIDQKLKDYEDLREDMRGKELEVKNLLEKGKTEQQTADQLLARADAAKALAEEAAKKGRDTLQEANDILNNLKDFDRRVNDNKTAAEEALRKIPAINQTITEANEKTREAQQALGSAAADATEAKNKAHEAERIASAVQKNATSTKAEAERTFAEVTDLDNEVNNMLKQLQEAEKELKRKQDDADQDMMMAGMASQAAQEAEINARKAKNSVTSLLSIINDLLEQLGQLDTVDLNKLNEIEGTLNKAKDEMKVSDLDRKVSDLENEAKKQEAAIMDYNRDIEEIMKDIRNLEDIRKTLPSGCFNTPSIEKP
UniProt Q9UPN9: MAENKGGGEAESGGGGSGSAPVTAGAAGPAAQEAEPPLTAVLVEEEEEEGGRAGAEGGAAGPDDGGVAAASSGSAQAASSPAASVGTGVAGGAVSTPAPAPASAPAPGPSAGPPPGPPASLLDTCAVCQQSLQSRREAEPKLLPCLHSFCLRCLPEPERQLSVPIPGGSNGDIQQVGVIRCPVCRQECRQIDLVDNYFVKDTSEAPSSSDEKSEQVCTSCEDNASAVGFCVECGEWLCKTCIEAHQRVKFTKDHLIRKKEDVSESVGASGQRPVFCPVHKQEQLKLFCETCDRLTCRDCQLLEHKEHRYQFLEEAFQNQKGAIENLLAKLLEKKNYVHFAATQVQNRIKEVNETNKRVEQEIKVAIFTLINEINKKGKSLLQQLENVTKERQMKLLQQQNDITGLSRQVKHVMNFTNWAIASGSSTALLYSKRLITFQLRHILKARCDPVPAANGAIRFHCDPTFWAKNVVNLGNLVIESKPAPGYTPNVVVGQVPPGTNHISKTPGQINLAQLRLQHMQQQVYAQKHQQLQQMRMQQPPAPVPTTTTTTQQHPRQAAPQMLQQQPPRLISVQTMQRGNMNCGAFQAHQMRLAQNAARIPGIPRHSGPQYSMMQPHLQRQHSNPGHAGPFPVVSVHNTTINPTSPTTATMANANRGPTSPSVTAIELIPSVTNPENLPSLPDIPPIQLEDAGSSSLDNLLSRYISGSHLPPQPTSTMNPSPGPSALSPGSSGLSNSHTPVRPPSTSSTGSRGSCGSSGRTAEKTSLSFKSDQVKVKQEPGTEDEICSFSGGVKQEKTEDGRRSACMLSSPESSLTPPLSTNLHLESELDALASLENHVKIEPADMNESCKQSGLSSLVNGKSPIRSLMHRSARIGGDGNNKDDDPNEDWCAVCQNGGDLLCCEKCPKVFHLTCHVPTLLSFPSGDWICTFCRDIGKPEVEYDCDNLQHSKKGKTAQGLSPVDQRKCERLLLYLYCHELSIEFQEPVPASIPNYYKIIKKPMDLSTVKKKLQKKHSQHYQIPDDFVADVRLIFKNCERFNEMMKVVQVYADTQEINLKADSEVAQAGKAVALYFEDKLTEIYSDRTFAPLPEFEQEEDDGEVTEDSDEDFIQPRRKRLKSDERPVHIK

Biological target: HA-TRIM21 (in GBM cells) (UniProt P19474)
Experiment: affinity purification with mass spectrometry; TRIM21 immunoprecipitated from U87-MG expressing HA-TRIM21 with anti-HA-conjugated beads; gel pieces digested with trypsin, LTQ-Orbitrap Elite

binding	Substance
binds	LAMC1 (from UniProt P11047 34-1609)
binds	TIF1γ (endogenous in GBM cells) (from UniProt Q9UPN9 1-1127)

Results are given in words; binding and its absence hold for the method and conditions named. Binding seen in cells or lysates may run through a third protein. These calls come from enrichment with a bait or labelling near it, and not all partners need be listed.
